Data from PMC3647082.
These are yes or no findings as the source states them, for the method shown. Some binding calls cover weakened binding; strength is not graded here.

Chains of the proteins cited; added tags and fusions are not shown. Residues count along the entry.
UniProt P56757: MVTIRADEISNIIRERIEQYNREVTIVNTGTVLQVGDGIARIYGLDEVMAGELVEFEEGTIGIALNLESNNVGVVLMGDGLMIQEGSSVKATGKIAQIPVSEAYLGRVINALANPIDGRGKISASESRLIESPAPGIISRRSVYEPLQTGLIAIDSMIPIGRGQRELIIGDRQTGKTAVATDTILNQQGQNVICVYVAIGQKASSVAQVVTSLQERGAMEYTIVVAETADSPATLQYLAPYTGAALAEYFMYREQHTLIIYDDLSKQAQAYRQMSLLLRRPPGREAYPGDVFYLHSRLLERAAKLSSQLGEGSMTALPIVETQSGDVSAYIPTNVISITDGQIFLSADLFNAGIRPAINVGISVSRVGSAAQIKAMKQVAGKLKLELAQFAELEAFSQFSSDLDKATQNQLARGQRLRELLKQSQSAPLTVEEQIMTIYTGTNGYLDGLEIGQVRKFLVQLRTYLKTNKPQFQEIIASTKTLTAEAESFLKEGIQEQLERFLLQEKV
UniProt P19366: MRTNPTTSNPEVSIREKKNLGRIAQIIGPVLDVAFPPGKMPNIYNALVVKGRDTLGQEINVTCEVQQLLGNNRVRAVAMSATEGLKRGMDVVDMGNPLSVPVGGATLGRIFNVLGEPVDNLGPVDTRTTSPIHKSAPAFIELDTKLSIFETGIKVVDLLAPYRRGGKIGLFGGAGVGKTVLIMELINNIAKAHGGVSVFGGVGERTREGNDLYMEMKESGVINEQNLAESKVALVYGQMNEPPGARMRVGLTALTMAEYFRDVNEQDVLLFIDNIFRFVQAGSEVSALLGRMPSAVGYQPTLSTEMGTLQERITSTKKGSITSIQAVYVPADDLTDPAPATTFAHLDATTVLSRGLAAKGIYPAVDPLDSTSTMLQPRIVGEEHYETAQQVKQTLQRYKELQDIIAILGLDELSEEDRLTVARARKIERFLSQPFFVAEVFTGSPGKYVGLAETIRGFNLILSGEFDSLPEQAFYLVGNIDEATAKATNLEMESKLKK
UniProt P56753: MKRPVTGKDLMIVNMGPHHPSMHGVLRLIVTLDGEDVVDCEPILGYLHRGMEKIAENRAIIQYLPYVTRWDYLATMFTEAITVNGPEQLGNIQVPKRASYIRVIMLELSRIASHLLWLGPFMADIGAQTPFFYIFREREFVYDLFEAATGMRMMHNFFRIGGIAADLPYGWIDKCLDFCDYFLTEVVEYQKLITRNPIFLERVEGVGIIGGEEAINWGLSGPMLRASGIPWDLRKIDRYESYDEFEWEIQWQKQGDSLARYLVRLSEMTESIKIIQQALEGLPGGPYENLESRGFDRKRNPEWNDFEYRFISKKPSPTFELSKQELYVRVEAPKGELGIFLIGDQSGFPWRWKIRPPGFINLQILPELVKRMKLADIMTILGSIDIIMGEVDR
UniProt Q9SGH4, residues 78-220: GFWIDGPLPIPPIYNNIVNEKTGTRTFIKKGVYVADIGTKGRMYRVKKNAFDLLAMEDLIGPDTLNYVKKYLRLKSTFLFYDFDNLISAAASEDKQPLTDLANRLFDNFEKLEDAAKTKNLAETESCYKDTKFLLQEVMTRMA
UniProt P56754: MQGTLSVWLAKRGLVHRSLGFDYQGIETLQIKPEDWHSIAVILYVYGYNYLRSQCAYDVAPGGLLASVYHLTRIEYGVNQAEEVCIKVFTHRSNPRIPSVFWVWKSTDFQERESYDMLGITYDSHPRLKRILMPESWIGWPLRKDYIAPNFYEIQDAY
UniProt P56756: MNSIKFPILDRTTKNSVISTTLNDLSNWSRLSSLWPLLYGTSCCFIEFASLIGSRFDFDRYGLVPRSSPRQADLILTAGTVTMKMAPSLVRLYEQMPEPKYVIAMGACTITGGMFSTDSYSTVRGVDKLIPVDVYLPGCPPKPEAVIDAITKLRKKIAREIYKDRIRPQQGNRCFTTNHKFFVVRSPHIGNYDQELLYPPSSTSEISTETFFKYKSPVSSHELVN
UniProt O80634, residues 81-238: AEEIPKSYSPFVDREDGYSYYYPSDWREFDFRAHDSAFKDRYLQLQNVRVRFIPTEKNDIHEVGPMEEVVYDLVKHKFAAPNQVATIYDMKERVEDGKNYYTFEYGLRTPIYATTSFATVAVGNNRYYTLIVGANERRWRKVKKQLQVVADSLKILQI
UniProt Q9LVM2, residues 46-209: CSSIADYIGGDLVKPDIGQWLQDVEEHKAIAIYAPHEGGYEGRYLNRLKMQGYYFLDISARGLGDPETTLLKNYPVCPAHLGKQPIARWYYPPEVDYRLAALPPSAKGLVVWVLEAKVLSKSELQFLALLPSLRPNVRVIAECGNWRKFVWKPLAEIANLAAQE
UniProt Q94AQ8, residues 18-348: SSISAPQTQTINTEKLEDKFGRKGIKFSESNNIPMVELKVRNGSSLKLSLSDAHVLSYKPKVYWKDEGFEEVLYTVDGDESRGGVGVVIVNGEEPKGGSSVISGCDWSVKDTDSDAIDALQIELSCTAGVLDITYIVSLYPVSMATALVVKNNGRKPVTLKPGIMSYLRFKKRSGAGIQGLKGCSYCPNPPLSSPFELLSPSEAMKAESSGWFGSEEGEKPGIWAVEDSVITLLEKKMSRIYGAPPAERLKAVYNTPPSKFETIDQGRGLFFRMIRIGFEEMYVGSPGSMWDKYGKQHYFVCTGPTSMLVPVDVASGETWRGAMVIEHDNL
UniProt P56752: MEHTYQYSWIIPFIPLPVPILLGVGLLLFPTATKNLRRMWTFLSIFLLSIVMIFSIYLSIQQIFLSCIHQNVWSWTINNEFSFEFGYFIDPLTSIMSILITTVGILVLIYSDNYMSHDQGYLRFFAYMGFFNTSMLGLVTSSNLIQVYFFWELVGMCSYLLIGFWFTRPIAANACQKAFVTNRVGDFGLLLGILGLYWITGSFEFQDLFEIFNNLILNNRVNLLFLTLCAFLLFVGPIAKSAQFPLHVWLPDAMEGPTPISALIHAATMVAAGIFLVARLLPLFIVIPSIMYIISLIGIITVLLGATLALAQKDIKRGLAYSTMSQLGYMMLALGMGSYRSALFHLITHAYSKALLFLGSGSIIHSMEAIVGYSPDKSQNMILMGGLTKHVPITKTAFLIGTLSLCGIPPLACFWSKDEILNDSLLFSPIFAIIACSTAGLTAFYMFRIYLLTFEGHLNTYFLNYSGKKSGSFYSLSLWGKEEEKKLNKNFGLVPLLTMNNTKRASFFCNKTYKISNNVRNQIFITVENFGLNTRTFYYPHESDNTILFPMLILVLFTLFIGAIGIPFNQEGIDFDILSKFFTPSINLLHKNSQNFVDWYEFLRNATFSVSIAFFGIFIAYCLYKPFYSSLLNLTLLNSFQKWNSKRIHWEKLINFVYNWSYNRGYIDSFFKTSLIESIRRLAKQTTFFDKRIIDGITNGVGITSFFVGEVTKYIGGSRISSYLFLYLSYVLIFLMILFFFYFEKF
UniProt Q9XI73, residues 69-190: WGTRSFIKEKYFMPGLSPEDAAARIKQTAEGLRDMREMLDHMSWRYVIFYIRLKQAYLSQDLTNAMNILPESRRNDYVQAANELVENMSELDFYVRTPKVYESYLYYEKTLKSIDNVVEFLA
UniProt Q9FG89, residues 49-212: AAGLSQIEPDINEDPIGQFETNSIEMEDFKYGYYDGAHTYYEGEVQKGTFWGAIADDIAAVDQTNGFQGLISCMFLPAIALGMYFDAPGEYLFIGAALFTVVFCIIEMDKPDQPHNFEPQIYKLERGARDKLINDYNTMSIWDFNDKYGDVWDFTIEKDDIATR
UniProt Q9CAC5, residues 47-191: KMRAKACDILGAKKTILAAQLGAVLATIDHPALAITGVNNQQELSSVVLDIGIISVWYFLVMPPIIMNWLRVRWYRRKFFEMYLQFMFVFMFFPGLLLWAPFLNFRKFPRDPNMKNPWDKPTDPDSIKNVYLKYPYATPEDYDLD
UniProt P26289: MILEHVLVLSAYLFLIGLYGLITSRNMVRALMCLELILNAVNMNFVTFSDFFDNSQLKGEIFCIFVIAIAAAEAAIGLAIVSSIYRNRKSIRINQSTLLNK
UniProt P56771, residues 36-320: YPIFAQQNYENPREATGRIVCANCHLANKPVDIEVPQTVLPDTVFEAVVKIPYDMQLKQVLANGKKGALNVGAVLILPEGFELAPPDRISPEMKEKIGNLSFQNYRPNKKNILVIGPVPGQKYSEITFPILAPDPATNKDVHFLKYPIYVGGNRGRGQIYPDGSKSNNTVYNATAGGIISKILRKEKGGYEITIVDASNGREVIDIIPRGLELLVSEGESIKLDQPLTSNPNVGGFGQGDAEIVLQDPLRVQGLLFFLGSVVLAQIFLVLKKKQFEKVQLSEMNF
UniProt P56773: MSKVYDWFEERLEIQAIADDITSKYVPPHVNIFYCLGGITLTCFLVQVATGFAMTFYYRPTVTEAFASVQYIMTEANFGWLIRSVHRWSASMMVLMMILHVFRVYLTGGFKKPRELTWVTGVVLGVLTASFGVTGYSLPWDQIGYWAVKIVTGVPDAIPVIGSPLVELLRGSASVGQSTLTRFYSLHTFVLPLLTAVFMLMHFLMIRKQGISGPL
UniProt P56774: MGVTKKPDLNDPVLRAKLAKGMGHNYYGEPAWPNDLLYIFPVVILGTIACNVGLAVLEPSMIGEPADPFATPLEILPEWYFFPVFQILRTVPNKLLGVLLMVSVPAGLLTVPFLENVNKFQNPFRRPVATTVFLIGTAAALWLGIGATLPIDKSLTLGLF
UniProt Q9ZR03, residues 51-229: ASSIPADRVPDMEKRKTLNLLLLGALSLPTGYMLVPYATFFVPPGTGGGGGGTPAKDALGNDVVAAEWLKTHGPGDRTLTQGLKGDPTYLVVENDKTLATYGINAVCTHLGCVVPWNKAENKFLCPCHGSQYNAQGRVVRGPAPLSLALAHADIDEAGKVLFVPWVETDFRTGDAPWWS
UniProt P56766: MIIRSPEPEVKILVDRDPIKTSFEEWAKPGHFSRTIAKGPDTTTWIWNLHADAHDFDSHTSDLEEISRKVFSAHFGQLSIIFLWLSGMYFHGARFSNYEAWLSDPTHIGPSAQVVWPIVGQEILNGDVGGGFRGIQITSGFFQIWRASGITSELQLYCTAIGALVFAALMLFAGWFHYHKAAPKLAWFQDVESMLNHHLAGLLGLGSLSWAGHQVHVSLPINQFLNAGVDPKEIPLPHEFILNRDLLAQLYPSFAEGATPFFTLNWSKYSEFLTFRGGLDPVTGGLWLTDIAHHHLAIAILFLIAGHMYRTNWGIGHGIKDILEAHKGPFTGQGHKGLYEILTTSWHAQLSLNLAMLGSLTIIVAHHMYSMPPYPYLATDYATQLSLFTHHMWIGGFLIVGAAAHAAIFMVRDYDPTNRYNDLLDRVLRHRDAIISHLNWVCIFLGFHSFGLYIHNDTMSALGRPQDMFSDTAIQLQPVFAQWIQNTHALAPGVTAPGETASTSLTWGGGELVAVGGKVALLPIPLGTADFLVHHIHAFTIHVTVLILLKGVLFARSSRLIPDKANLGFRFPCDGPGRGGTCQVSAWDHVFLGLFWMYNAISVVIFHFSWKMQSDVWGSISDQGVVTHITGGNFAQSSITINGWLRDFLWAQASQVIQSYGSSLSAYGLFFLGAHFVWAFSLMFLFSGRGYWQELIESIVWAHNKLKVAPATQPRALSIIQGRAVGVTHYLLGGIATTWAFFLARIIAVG
UniProt Q9SUI5, residues 47-130: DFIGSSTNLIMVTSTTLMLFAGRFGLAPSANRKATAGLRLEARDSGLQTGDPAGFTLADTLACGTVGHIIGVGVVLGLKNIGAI
UniProt Q9S7N7, residues 61-160: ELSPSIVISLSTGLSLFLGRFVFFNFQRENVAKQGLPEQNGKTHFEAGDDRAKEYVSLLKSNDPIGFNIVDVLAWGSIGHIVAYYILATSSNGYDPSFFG
UniProt P56767: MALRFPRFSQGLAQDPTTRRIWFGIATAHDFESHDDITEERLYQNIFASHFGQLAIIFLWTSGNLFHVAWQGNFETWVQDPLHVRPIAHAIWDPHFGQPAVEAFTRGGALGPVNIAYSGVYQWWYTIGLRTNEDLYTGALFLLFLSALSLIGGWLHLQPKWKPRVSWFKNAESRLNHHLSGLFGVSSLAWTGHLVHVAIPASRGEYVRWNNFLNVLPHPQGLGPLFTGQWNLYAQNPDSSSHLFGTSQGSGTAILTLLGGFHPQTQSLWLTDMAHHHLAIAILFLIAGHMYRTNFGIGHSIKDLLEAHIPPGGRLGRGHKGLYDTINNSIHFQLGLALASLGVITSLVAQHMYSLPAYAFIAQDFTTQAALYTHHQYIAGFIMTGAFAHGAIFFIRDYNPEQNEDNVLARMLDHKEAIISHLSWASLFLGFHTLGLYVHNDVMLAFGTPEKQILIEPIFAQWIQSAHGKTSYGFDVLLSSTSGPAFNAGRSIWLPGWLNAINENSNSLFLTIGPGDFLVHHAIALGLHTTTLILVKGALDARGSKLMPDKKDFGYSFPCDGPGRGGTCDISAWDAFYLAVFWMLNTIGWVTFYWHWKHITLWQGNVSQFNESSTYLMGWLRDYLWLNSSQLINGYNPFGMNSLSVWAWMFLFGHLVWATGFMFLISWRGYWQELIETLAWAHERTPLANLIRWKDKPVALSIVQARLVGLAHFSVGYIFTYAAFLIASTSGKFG
UniProt Q01667, residues 36-241: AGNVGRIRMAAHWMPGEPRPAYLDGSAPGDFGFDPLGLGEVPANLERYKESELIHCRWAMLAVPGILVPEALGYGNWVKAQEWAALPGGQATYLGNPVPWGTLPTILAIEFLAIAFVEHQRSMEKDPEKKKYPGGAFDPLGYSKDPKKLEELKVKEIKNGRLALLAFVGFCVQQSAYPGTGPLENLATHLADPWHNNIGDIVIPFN

B1: AtpC1 (protein, UniProt Q01908 51-373)
chain: ASLRELRDRIDSVKNTQKITEAMKLVAAAKVRRAQEAVVNGRPFSETLVEVLYNINEQLQTDDVDVPLTKVRPVKKVALVVVTGDRGLCGGFNNFIIKKAEARIKELKGLGLEYTVISVGKKGNSYFLRRPYIPVDKYLEAGTLPTAKEAQAVADDVFSLFISEEVDKVELLYTKFVSLVKSEPVIHTLLPLSPKGEICDINGTCVDAAEDEFFRLTTKEGKLTVERETFRTPTADFSPILQFEQDPVQILDALLPLYLNSQILRALQESLASELAARMSAMSSASDNASDLKKSLSMVYNRKRQAKITGEILEIVAGANAQV
B2: AtpD (protein, UniProt Q9SSS9 48-234)
chain: SATAASSYAMALADVAKRNDTMELTVTDIEKLEQVFSDPQVLNFFANPTITVEKKRQVIDDIVKSSSLQSHTSNFLNVLVDANRINIVTEIVKEFELVYNKLTDTQLAEVRSVVKLEAPQLAQIAKQVQKLTGAKNVRVKTVIDASLVAGFTIRYGESGSKLIDMSVKKQLEDIASQLELGEIQLAT
B3: AtpE (protein, UniProt P09468 1-132)
chain: MTLNLCVLTPNRIVWDSEVKEIILSTNSGQIGVLANHAPIATAVDIGILKIRLANQWLTMALMGGFARIGNNEITILVNDAEKNSDIDPQEAQQTLEIAEANLRKAEGKRQTIEANLALRRARTRVEALNTI
B4: AtpF (protein, UniProt P56759 1-184)
chain: MKNLTDSFVYLGHWPSAGSFGFNTDILATNPINLSVVFGVLIFFGKGVLNDLLDNRKQRILNTIRNSEELREGAIQQLENARARLRNVETEADKFRVNGYSEIEREKLNLINSTYKTLKQLENYKNETILFEQQRTINQVRERVFQQALQGAIGTLNSCLSNELHLRTINANIGMFGTMKEITD
B5: AtpI (protein, UniProt P56758 1-249)
chain: MNVLSCSINTLIKEGLYEISGVEVGQHFYWQIGGFQVHAQVLITSWVVIAILLGSAVLAIRNPQTIPTDGQNFFEFVLEFIRDVSKTQIGEEYGPWVPFIGTLFLFIFVSNWSGALLPWKIIQLPQGELAAPTNDINTTVALALLTSVAYFYAGLSKKGLGYFSKYIQPTPILLPINILEDFTKPLSLSFRLFGNILADELVVVVLVSLVPLVVPIPVMFLGLFTSGIQALIFATLAAAYIGESMEGHH
B6: NdhU (protein, UniProt Q84VQ4 54-218)
chain: AEAETEGGSSTAVDEAPKESPSLISALNVERALRGLPITDVDHYGRLGIFRNCSYDQVTIGYKERVKELKEQGLDEEQLKTKMDLIKESYTILSTVEERRMYDWSLARSEKAERYVWPFEVDIMEPSREEPPPQEPEDVGPTRILGYFIGAWLVLGVALSVAFNR
B7: PsaH2 (protein, UniProt Q9SUI6 51-145)
chain: KYGDKSVYFDLEDLGNTTGQWDVYGSDAPSPYNPLQSKFFETFAAPFTKRGLLLKFLILGGGSLLTYVSANSTGDVLPIKRGPQEPPKLGPRGKL

Target: AtpA (Arabidopsis thaliana (endogenous in thylakoid membranes)) (UniProt P56757)
Experiment: native gel or EMSA; BN-PAGE (4-13% gradient, 4°C, 14 h at 40 V) of purified Arabidopsis thylakoid membranes solubilised with 1% n-dodecyl-β-D-maltoside; lane cut into 60 slices, in-gel trypsin digestion, LC-MS/MS; emPAI-based migration profiles compared (co-migration)

binding, binds:
AtpB (from UniProt P19366 1-498)
B1
B2
B3
B4
B5

Target: NdhH (Arabidopsis thaliana (endogenous in thylakoid membranes)) (UniProt P56753)
Experiment: as above

binding, binds:
PnsL3 (from UniProt Q9SGH4 78-220)
NdhJ (from UniProt P56754 1-158)
NdhK (from UniProt P56756 1-225)
PnsL1 (from UniProt O80634 81-238)
NdhN (from UniProt Q9LVM2 46-209)
PnsB2 (from UniProt Q94AQ8 18-348)
PnsB1 (from UniProt Q9S9N6 45-461)
NdhF (from UniProt P56752 1-746)
PnsL2 (from UniProt Q9XI73 69-190)
NdhI (from UniProt P56755 1-172)
PnsB5 (from UniProt Q9FG89 49-212)
NdhL (from UniProt Q9CAC5 47-191)
NdhE (from UniProt P26289 1-101)
B6

Target: PetA (Arabidopsis thaliana (endogenous in thylakoid membranes)) (UniProt P56771)
Experiment: as above

binding, binds:
PetB (from UniProt P56773 1-215)
PetD (from UniProt P56774 1-160)
PetC (from UniProt Q9ZR03 51-229)

Target: PsaA (Arabidopsis thaliana (endogenous in thylakoid membranes)) (UniProt P56766)
Experiment: as above

binding, binds:
PsaL (from UniProt Q9SUI4 51-219)
PsaK (from UniProt Q9SUI5 47-130)
PsaF (from UniProt Q9SHE8 68-221)
Lhca2 (from UniProt Q9SYW8 44-257)
PsaG (from UniProt Q9S7N7 61-160)
PsaB (from UniProt P56767 1-734)
Lhca1 (from UniProt Q01667 36-241)
Lhca3 (from UniProt Q9SY97 40-273)
B7
